# Results deposited as PubChem BioAssay AID1224828 (NIAID, 2016)
# Test: 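Regulators linking TLR4 signalling to p65 nuclear translocation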 (primary screen)
# System: mouse RAW264.7 G9 macrophage reporter cells (GFP-p65, Tnf promoter-mCherry)
# Reagent: siRNA pool against mouse genes, 100 nM
# Time to read-out: 2 days siRNA transfection, then 40 min LPS before fixation
# Treatment: LPS (Salmonella minnesota R595) at 10 ng/ml
# Detection: 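Imaged p65 nuclear translocation ratio, normalised to the plate median, converted to robust z-scores and averaged across two replicates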
# Reading the numbers: p65 translocation robust z-score: higher = more nuclear NF-kappaB p65 after LPS than the plate median; nuclear/cytoplasmic p65 ratio: higher = more nuclear NF-kappaB p65
# Hit rule: 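Active if robust z is above 3.3 (negative regulators) or below -1.56, the Tlr4 control median (positive regulators); activity score 50 or more; control wells not called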
# Calls: active = hit (p65 shift raised or lowered); inactive = no clear change
# In all, the deposit lists about 17,000 reagents; below is an unselected part. 762 of them (4.5%) count as active. 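Active calls include both raised and lowered p65 entry, mostly lowered; wells with fewer than 50 cells lack a z-score.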 Raw values are not corrected between plates. Entries without a mark were called inactive. Reagents against one gene are numbered here. Reagent sequences are not shown.
Target gene,reagent no.,p65 translocation robust z-score,"nuclear/cytoplasmic p65 ratio, rep 1","nuclear/cytoplasmic p65 ratio, rep 2",low cell count flag
Prss39 (GeneID 21755),1,-1.3,1.22,1.03,enough cells to score
Ubap1 (GeneID 67123),1,-0.32,1.51,1.42,enough cells to score
H2-T13 (GeneID 14963),1,2.23,1.73,1.67,enough cells to score
Ddx20 (GeneID 53975),1,0.52,1.59,1.41,enough cells to score
Ppfia4 (GeneID 68507),1,-0.55,1.49,1.27,enough cells to score
Gata1 (GeneID 14460),1,0.68,1.58,1.4,enough cells to score
Fam168b (GeneID 214469),1,0.03,1.52,1.44,enough cells to score
Serpinb12 (GeneID 71869),1,,1.4,1.27,fewer than 50 cells per well; well left out of scoring
Pp2d1 (GeneID 110332),1,,1.22,1.84,fewer than 50 cells per well; well left out of scoring
Iigp1 (GeneID 60440),1,-0.48,1.43,1.54,enough cells to score
Tesk2 (GeneID 230661),1,-1.42,1.31,1.33,enough cells to score
Ergic1 (GeneID 67458),1,-0.55,1.32,1.35,enough cells to score
Casr (GeneID 12374),1,0.21,1.51,1.64,enough cells to score

Copied from the listing (4 entries):
Target gene,reagent no.,p65 translocation robust z-score,"nuclear/cytoplasmic p65 ratio, rep 1","nuclear/cytoplasmic p65 ratio, rep 2",low cell count flag
Prss39 (GeneID 21755),1,-1.3,1.22,1.03,enough cells to score
Ubap1 (GeneID 67123),1,-0.32,1.51,1.42,enough cells to score
H2-T13 (GeneID 14963),1,2.23,1.73,1.67,enough cells to score
Ddx20 (GeneID 53975),1,0.52,1.59,1.41,enough cells to score

Next entries:
Target gene,reagent no.,p65 translocation robust z-score,"nuclear/cytoplasmic p65 ratio, rep 1","nuclear/cytoplasmic p65 ratio, rep 2",low cell count flag
Sowahc (GeneID 268301),1,0.97,1.29,1.37,enough cells to score
Slc4a10 (GeneID 94229),1,,1.42,1.45,fewer than 50 cells per well; well left out of scoring
Cyp1a1 (GeneID 13076),1,1.34,1.7,1.52,enough cells to score
Napsa (GeneID 16541),1,1.87,1.53,1.85,enough cells to score
Fermt3 (GeneID 108101),1,0.14,1.61,1.86,enough cells to score
Jrkl (GeneID 77532),1,0.56,1.73,1.67,enough cells to score
Rpa3 (GeneID 68240),1,-0.01,1.31,1.31,enough cells to score
Or8k23 (GeneID 259020),1,-0.36,1.64,1.49,enough cells to score
Zfp60 (GeneID 22718),1,-1.2,1.24,1.13,enough cells to score
Zfp60 (GeneID 22718),2,,1.3,1.46,fewer than 50 cells per well; well left out of scoring
Fgf11 (GeneID 14166),1,-0.61,1.26,1.38,enough cells to score
